Source: patent US20230002492A1
These are yes or no findings as the source states them, for the method shown. Some binding calls cover weakened binding; strength is not graded here. Values belong to the binder of their own block, whether it stands above or below them.

Protein sequences, listed by entry. Tags and fused reporters are not part of them. Lines headed by an entry give the natural chain unless they say otherwise; changes in a name come on top. Residues count along the entry.
UniProt Q9NZQ7: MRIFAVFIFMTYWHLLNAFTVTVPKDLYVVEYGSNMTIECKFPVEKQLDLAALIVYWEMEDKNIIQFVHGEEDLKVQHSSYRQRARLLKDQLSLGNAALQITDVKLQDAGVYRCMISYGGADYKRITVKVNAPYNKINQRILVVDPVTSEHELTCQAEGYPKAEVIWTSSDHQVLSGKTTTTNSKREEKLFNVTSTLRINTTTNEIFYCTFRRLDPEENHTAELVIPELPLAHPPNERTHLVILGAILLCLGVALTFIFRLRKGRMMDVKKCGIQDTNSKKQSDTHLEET
PD-L1 on the surface of CHO-PD-L1 cells: residues 19-290 of Q9NZQ7
recombinant human PD-L1-His (Novoprotein, Cat. 315): residues 19-239 of Q9NZQ7

How the values were obtained:
[1] = target: PD-L1 on the surface of CHO-PD-L1 cells (UniProt Q9NZQ7); test: flow cytometry on CHO-PD-L1 cells, anti-human IgG PE
[2] = target: recombinant human PD-L1-His (Novoprotein, Cat. 315) (human) (UniProt Q9NZQ7); test: SPR, Biacore T200

- binding [1]: binds
B1: PDL1-156 (antibody, V domains shown)
VH: EVQLQESGPELVKPGASVKISCKASGYTFTDYYMNWVRQSHGKSLEWIGDINPNNGDTSYNQKFKGKATLTVDKSSSTAYMDLRSLTSEDSAVYYCASSVMDYWGQGTTVTVSS
VL: DIVLTQSPALMSASPGEKVTMTCSASSSVNYVYWYQQKPRSSPKPWIYLTFNLASGVPARFSGSGSGTSYSLTISSMEAEDAATYYCQQWSSNPLTFGAGTKLEIK

- binding [2]: binds
B2: PDL1-50 (antibody, V domains shown)
VH: EVQLQESGGDLVKPGGSLKLSCAASGFTFNTYGMSWVRQTPDKRLEWVATLSSGGSYTYYSESVKGRFTISRDNAKNTLYLQMTSLKSEDTAIYYCARPTADWHLDVWGTGTTVTVSS
VL: DIQMTQSPSSLSASLGGKVTITCKASQDINKYIAWYQHKPGKGPRLLIHYTSTLQPGIPSRFSGSGSGRDYSFSISNLEPEDIATYYCLQHDNLLFTFGSGTKLEIK

- binding [1]: binds
B3: PDL1-370 (antibody, V domains shown)
VH: EVQLQESGPGLAKPSQTLSLTCSVTGYSITSDYWNWIRKFPGNKLEYMGYISYTGSTYYNPSLKSRISIARDTSRNQYYLQLNSVTTEDSATYYCARAGGWLLPFAVWGTGTTVTVSS
VL: DIVITQSPSSLAVSVGEKVTMSCKSSQSLLYSSNQQNSLAWYQQKPGQSPILLIYWASTRESGVPDRFTGGGSGTDFTLTISSVRAEDLAVYYCQQYYNYPWTFGGGTKLEIK
